Assay results taken from patent US20250179167A1, “IL-6 INHIBITOR AS TREATMENT FOR NEPHROPATHY” (YALE UNIVERSITY, priority 2022, published 2025).

Columns and labels:
[1] = test system: control littermates and GR^ECKO mice; experiment: Etomoxir and C75 in non-diabetic and diabetic control littermates and GR^ECKO mice; type: in vivo, mouse; settings: non-diabetic or diabetic control littermates and GR^ECKO mice
Procedure: FIGS. 6A-6E show metabolic reprogramming by loss of endothelial GR loss worsens diabetic kidney disease. (FIG. 6A) Radiolabeled ^14C-palmitate uptake analysis in isolated endothelial cells from kidneys of nondiabetic and diabetic control, GR^ECKO Apoe^−/− and DKO mice. CPM of each sample were counted. Data were normalized to μg protein. Fold activity is presented. Endothelial cells isolated and cultured from six biologically independent mice/group were performed in triplicate and analyzed for ^14C-palmitate uptake analysis. Data are mean±SEM. (FIG. 6B) Radiolabeled [^14C]palmitate oxidation and [^14CO2]release were measured in isolated endothelial cells from kidneys of nondiabetic and diabetic control, GR^ECKO Apoe^−/− and DKO mice. CPM of each sample was counted. Data were normalized to μg protein. Fold activity is presented. Endothelial cells isolated and cultured from six biologically independent mice/group were performed in triplicate and analyzed for ^14C-palmitate uptake analysis. Data are mean±SEM. (FIG. 6C) Body weight, blood glucose, and kidney weight/body weight were measured at the end of these experiments. N=6 biologically independent mice from two experiments. Ex vivo radiolabeled [^14C]palmitate oxidation and [^14CO2]release were measured in kidneys. CPM of each sample was counted. Isolated endothelial cells from five biologically independent mice/group were analyzed in triplicate. Data are mean±SEM. (FIG. 6D) Masson trichrome, Sirius red and PAS staining were analyzed in the kidneys of control, etomoxir- and C75-treated diabetic mice. Representative images are shown; original magnification 300×. Relative area of fibrosis (%) and relative collagen deposition (%) were measured using the ImageJ program. N=8 biologically independent mice per/group from three independent experiments were analyzed. Scale bar 50 μm. Data are mean±SEM. (FIG. 6E) Immunohistochemical analysis of CPT1a and β-catenin. Representative images are shown; original magnification 300×. Scale bar 50 μm. N=6 biologically independent mice per group from three independent experiments. For all panels one-way ANOVA with Tukey post-test was used for analysis of statistical significance. Significance—*p<0.05, **p<0.01, ***p<0.001.
Body weight, blood glucose, and kidney/body weight ratio and fatty acid oxidation as represented by [^14CO2]release are shown. [^14C]palmitate was used as substrate and CPM counts were normalized by protein. n=6 biologically independent mice/group. Data are mean±SEM. One-way Anova with Tukey multiple comparison post hoc test was used to calculate statistical significance. Significance—*p<0.05.
Masson trichrome staining (upper panel) and Sirius red (lower panels) in etomoxir- and C75-treated non-diabetic control and GR^ECKO mice. Etomoxir (20 mg/kg) and C75 (15 mg/kg) were dosed (IP) three times per week for 3 weeks in GR^ECKO and control littermates. Representative images are shown; original magnification 400×. Area of fibrosis (%) and relative collage deposition (%) in n=6 biologically independent mice/group were combined from two independent experiments. Scale bar 50 μm. Data are mean±SEM. One-way Anova with Tukey multiple comparison post hoc test was used to calculate statistical significance. Significance-**p<0.01.
Animal Experimentation. All experiments were performed according to a protocol approved by the Institutional Animal Care and Use Committee at the Yale University School of Medicine and were in accordance with the National Institute of Health (NIH) Guidelines for the Care of Laboratory Animals Mice were housed at an ambient temperature of 68-79° F. with a humidity that ranged between 30%-70%. They were exposed to 12-h light-dark cycles Mice lacking the endothelial glucocorticoid receptor (GR) (known as GR^ECKO) and those lacking this receptor on the Apoe null background (DKO) were generated as previously described^25; these mice were on the C57BL/6 background. […]

control and GR^ECKO mice = experiment: Wnt inhibitor (LGK974) treatment in nondiabetic and diabetic control and GR^ECKO mice; type: in vivo, mouse; settings: at the time of sacrifice, among the groups (control and GR^ECKO mice), oral gavage 8 weeks
Procedure: (FIG. 5A) Schematic diagram showing the treatment protocol of Wnt inhibition in diabetic control and GR^ECKO mice. (FIG. 5B) Physiological parameters including body weight, blood glucose and kidney weight/body weight were analyzed. N=6 biologically independent mice/group combined from two experiments. (FIG. 5C) Masson trichrome, Sirius red and PAS staining as well as immunohistochemical analysis of β-catenin levels in the kidneys of wnti-treated diabetic control and GR^ECKO mice. Representative images are shown; original magnification 300×. Relative area of fibrosis (%) and relative collagen deposition (%) were measured using the ImageJ program. N=8 biologically independent mice/group combined from three experiments were analyzed. Scale bar 50 μm. Data are mean SEM. […]
Physiological parameters including body weight, blood glucose, and kidney weight/body weight are shown. n=7 biologically independent mice/group combined from two experiments were analyzed. […]
FIGS. 27A-27B Histological analysis of kidneys from Wnt inhibitor-treated nondiabetic control and GR^ECKO mice. […] Area of fibrosis (%) and relative collagen deposition (%) were measured using the ImageJ program. N=5 biologically independent mice/group were analyzed. […] Scale bar 30 μm. n=6 biologically independent mice/group combined from two independent experiments were analyzed. […]

Structure (SMILES) | blood glucose [1] | body weight [1] | kidney weight [1] | blood glucose (control and GR^ECKO mice) | body weight (control and GR^ECKO mice)
C=C1C(=O)OC(CCCCCCCC)C1C(=O)O (centres unmarked) [C75] | no significant differences | no significant differences | no significant differences |  | 
Cc1cc(-c2ncc(CC(=O)Nc3ccc(-c4cnccn4)cn3)cc2C)ccn1 [LGK974] |  |  |  | no significant differences | no significant differences
CCOC(=O)[C@@]1(CCCCCCOc2ccc(Cl)cc2)CO1 [etomoxir] | no significant differences | no significant differences | no significant differences |  | 
